For at least one compound, name, drawing or mass did not settle the structure.
Test system: dermal conditions (eczema, Tinea versicolor rash, Athlete's Foot)
Assay: Case studies A-F, patients with dermal conditions, physician supervised
Assay type: in vivo, human
Details: Patient #1, severe eczema on legs, before the trial

SMILES: C[C@H]1C[C@H]2[C@@H]3CCC4=CC(=O)C=C[C@]4(C)[C@@]3(F)[C@@H](O)C[C@]2(C)[C@@]1(O)C(=O)CO [Betamethasone]
- Case Study A outcome of earlier treatments: little success

From patent US20110212933A1, “Antiseptic Compositions for the Treatment of Infections” (priority 2008, published 2011)
